Measured data: PubChem BioAssay AID1259254 (NCATS, 2017)

Purpose: 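Finding genes that stop cells copying their DNA twice in one cycle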 (primary screen)
Cells: human HCT116 colorectal cancer cells
Knock-down reagent: single siRNA against human genes
Duration: 3 days
Read-out: 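Nuclei stained with Hoechst and imaged; cell-cycle phase assigned by DNA content; G2 share scaled per plate, non-targeting siRNA 0%, GMNN siRNA 100%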
Direction: G2 robust z-score and G2 cells, % of GMNN control: higher = more G2 cells, more excess DNA replication; raw share of cells in G2: higher = larger share of cells with G2 DNA content
Hit rule: 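Active siRNAs have a G2 robust z of 5 or more median absolute deviations over the median, which in these data means about 38% or higher of GMNN control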
In all, the deposit lists about 59,000 reagents; below is a part drawn at random. In the full data, about 1,550 (2.6%) are marked active. 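G2 share is only a proxy for re-replication; each gene was hit by three separate siRNAs, and active genes were retested.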 Raw values vary from plate to plate and are shown uncorrected. Unmarked entries are inactive. Reagents against one gene are numbered here. Not given: the amount of reagent.

no.	gene knocked down	siRNA no.	G2 robust z-score	G2 cells, % of GMNN control	raw share of cells in G2 (%)
1	HABP4 (hyaluronan binding protein 4)	1	-0.958	-3.77	3.51
2	HABP4 (hyaluronan binding protein 4)	2	0.879	9.15	7.91
3	HABP4 (hyaluronan binding protein 4)	3	-0.524	-0.719	2.91
4	GHR (growth hormone receptor)	1	6.87 (active)	51.3	23.9
5	GHR (growth hormone receptor)	2	-0.215	1.46	5.82
6	GHR (growth hormone receptor)	3	-0.778	-2.5	2.77
7	ZFTRAF1 (zinc finger TRAF-type and ring finger containing 1)	1	0.139	3.95	5.36
8	ZFTRAF1 (zinc finger TRAF-type and ring finger containing 1)	2	2.34	19.4	11.9
9	ZFTRAF1 (zinc finger TRAF-type and ring finger containing 1)	3	-1.34	-6.43	1.23
10	ACADM (acyl-CoA dehydrogenase medium chain)	1	0.157	4.07	6.1
11	ACADM (acyl-CoA dehydrogenase medium chain)	2	-0.443	-0.152	5.02
12	ACADM (acyl-CoA dehydrogenase medium chain)	3	-0.623	-1.41	3.46
13	STX1B (syntaxin 1B)	1	-0.573	-1.07	2.8
14	STX1B (syntaxin 1B)	2	-0.038	2.7	4.02
15	STX1B (syntaxin 1B)	3	-0.683	-1.84	2.88

A run of entries from the list above:
no.	gene knocked down	siRNA no.	G2 robust z-score	G2 cells, % of GMNN control	raw share of cells in G2 (%)
7	ZFTRAF1 (zinc finger TRAF-type and ring finger containing 1)	1	0.139	3.95	5.36
8	ZFTRAF1 (zinc finger TRAF-type and ring finger containing 1)	2	2.34	19.4	11.9
9	ZFTRAF1 (zinc finger TRAF-type and ring finger containing 1)	3	-1.34	-6.43	1.23

Continued.
no.	gene knocked down	siRNA no.	G2 robust z-score	G2 cells, % of GMNN control	raw share of cells in G2 (%)
16	ABCD1 (ATP binding cassette subfamily D member 1)	1	-1.41	-6.94	2.61
17	ABCD1 (ATP binding cassette subfamily D member 1)	2	0.59	7.12	7.14
18	ABCD1 (ATP binding cassette subfamily D member 1)	3	-0.347	0.524	4.19
19	CMTM5 (CKLF like MARVEL transmembrane domain containing 5)	1	0.336	5.33	3.38
20	CMTM5 (CKLF like MARVEL transmembrane domain containing 5)	2	0.829	8.8	7.62
21	CMTM5 (CKLF like MARVEL transmembrane domain containing 5)	3	-0.839	-2.93	2.46
22	NPY1R (neuropeptide Y receptor Y1)	1	-0.0999	2.26	6.65
23	NPY1R (neuropeptide Y receptor Y1)	2	-0.157	1.86	5.17
24	NPY1R (neuropeptide Y receptor Y1)	3	-0.168	1.79	3.82
25	MED8 (mediator complex subunit 8)	1	1.05	10.3	10.5
26	MED8 (mediator complex subunit 8)	2	1.03	10.2	9.34
27	MED8 (mediator complex subunit 8)	3	-0.893	-3.32	3.23
28	FKBP11 (FKBP prolyl isomerase 11)	1	6.07 (active)	45.7	21.1
29	FKBP11 (FKBP prolyl isomerase 11)	2	0.104	3.7	7.63
30	FKBP11 (FKBP prolyl isomerase 11)	3	-0.0386	2.7	4.83
